Patent publication US20250051455A1
Results are given in words; binding and its absence hold for the method and conditions named. Some results given as binding are weak or reduced against the parent protein; the word gives no strength.

Target: human HLA-G (form of the antigen not named) (human) (UniProt P17693)
Assay: summary of antibody generation and screening from immunised rats; antigen form not named

B1: HLA-G-0031 (antibody, V domains shown)
VH: QVKLMQSGAALVKPGTSVKMSCNASGYTFTDYWVSWVKQSHGKRLEWVGEISPNSGASNFDENFKDKATLTVDKSTSTAYMELSRLTSEDSAIYYCTRSSHGSFRWFAYWGQGTLVTVSS
VL: AIVLNQSPSSIVASQGEKVTITCRASSSVSSNHLHWYQQKPGAFPKFVIYSTSQRASGIPSRFSGSGSGTSYSFTISRVEAEDVATYYCQQGSSNPYTFGAGTKLELK
binding: binds
